# In PubChem BioAssay AID488837 (National Center for Advancing Translational Sciences (NCATS), 2010):
# The chains behind the UniProt entries cited, without tags or fusion partners. Where a name states a change or a piece, a line headed by the entry shows the natural chain unless it says otherwise.
# UniProt O00167: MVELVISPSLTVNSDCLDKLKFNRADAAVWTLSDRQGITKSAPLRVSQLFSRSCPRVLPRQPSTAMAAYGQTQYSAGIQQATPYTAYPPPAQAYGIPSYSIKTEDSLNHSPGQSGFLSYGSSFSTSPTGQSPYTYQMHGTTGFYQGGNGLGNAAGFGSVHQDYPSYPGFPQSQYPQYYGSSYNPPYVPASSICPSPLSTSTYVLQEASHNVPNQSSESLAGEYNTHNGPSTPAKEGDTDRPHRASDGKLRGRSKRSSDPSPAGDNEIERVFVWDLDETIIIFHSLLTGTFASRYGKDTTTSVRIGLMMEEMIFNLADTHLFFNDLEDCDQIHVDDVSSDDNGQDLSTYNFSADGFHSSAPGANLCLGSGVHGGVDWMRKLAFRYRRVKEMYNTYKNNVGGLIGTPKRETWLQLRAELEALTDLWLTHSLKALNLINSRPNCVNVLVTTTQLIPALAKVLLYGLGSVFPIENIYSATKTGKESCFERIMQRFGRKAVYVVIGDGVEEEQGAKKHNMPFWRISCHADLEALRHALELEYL
# Out of some 330,000 compounds screened, about 20 (0.006%) were called active. Inconclusive results, whose numbers are uncertain, are shown with a selection of clear calls. Calls follow the shape of the dose curve; as a rule, active = well fitted inhibition curve with a large enough effect; inconclusive = small, poorly fitted or top-dose-only effect, or effect the other way; inactive = flat fitted curve, though single readings scatter. Potencies of inconclusive entries are doubtful fits and often do not repeat.
# Biological target: Protein phosphatase EYA2 (Homo sapiens) (UniProt O00167)
# Experiment: qHTS Assay for Inhibitors of the Phosphatase Activity of Eya2
# Settings: recombinant Eya2, OMFP fluorescence dephosphorylation (OMFP is methylfluorescein phosphate)
# How it was run: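 Eya2 (0.2 uM) preincubated 10 min at ambient with compound, then OMFP substrate added at 50 uM; 10 min reaction in 50 mM HEPES pH 7.5, 50 mM NaCl, 5 uM MgCl2, 0.05% BSA, 1 mM DTT. Fluorescence read at Ex 485/Em 525 nm.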
# Potency is read from the fitted curve at half-maximal effect.
row,Structure (SMILES),Potency
1,COc1ccc(Nc2cc(NCCCO)c([N+](=O)[O-])c3nonc23)cc1,"inconclusive: 25.1 µM [inhibitor, single point]"
2,Cn1cnc2c(=O)[nH]cc([N+](=O)[O-])c21,"inconclusive: 22.4 µM [inhibitor, partial curve, poor fit]"
3,CC(C)CCNC(=O)c1cn(CC(C)C)c(=O)c2c1c1ccccc1n2C,inactive
4,CC(=O)N1CCN(c2ccc(NCc3cccc4ccccc34)cc2)CC1,"inconclusive: 100 µM [inhibitor, single point]"
5,COc1ccc(C)cc1NC(=O)Cc1c(C(=O)O)n(C)c2ccccc12,"inconclusive: 56.2 µM [inhibitor, partial curve, poor fit]"
6,CCc1ccc(NC(=O)C/C(C)=N/NC(=O)COc2ccccc2C)cc1,"inconclusive: 100 µM [inhibitor, single point]"
7,O=C(CCC(=O)OCC(=O)c1ccc(Br)cc1)Nc1cccc2cccnc12,inactive
8,CC1Cc2cc(/C(O)=C3/C(=O)C(=O)N(CCCN4CCOCC4)C3c3ccc(C(C)C)cc3)ccc2O1 (stereo unspecified),"inconclusive: 79.4 µM [inhibitor, single point]"
9,O=C(/C=C/c1ccc2c(c1)OCO2)NCc1ccco1,inactive
10,COc1ccc2c(c1OC)C(=O)OC2Nc1nc(-c2cccc([N+](=O)[O-])c2)cs1 (stereo unspecified),"inconclusive: 501 µM [inhibitor, partial curve]"
11,Cn1ncc2c(Nc3ccc(Br)cc3)nc(Nc3ccc(Br)cc3)nc21,"inconclusive: 100 µM [inhibitor, single point]"
12,Cc1cc(C)cc(C(=O)N(NC(=O)Nc2ccc(Cl)cc2)C(C)(C)C)c1,inactive
13,O=C(NC(N1CCOCC1)C(Cl)(Cl)Cl)c1ccco1 (stereo unspecified),inactive
14,CCOc1ccccc1NC(=O)C12CC3CC(C1)CC(c1ccc(C)cc1)(C3)C2,"inconclusive: 100 µM [inhibitor, single point]"
15,COc1cccc2c(=O)c3cccc(N)c3[nH]c12,inactive
16,O=C(O)CC1C(=O)NCCN1Cc1cccs1 (stereo unspecified),"inconclusive: 28.2 µM [inhibitor, partial curve]"
17,COCCCNC(=O)N1c2ccccc2Sc2ccccc21,"inconclusive: 100 µM [inhibitor, single point]"
18,COc1ccc2c(c1)c(/C=C/c1cc[n+](C)cc1)cn2C,"inconclusive: 126 µM [activator, partial curve]"
19,CCOC(=O)c1cc(C)n(CCc2ccccc2)c1C,"inconclusive: 20 µM [inhibitor, single point]"
20,COc1ccc(-n2c(=O)c3c4c(sc3n3c(=S)[nH]nc23)COC(C(C)C)C4)cc1 (stereo unspecified),"inconclusive: 89.1 µM [inhibitor, single point]"
21,C=CCSc1ncccc1C(=O)NCCc1ccc(Cl)cc1,"inconclusive: 141 µM [inhibitor, partial curve]"

# Rewritten bar-delimited: part of the list above
row | Structure (SMILES) | Potency
1 | COc1ccc(Nc2cc(NCCCO)c([N+](=O)[O-])c3nonc23)cc1 | inconclusive: 25.1 µM [inhibitor, single point]
3 | CC(C)CCNC(=O)c1cn(CC(C)C)c(=O)c2c1c1ccccc1n2C | inactive
7 | O=C(CCC(=O)OCC(=O)c1ccc(Br)cc1)Nc1cccc2cccnc12 | inactive
10 | COc1ccc2c(c1OC)C(=O)OC2Nc1nc(-c2cccc([N+](=O)[O-])c2)cs1 (stereo unspecified) | inconclusive: 501 µM [inhibitor, partial curve]
12 | Cc1cc(C)cc(C(=O)N(NC(=O)Nc2ccc(Cl)cc2)C(C)(C)C)c1 | inactive
17 | COCCCNC(=O)N1c2ccccc2Sc2ccccc21 | inconclusive: 100 µM [inhibitor, single point]
18 | COc1ccc2c(c1)c(/C=C/c1cc[n+](C)cc1)cn2C | inconclusive: 126 µM [activator, partial curve]
19 | CCOC(=O)c1cc(C)n(CCc2ccccc2)c1C | inconclusive: 20 µM [inhibitor, single point]
20 | COc1ccc(-n2c(=O)c3c4c(sc3n3c(=S)[nH]nc23)COC(C(C)C)C4)cc1 (stereo unspecified) | inconclusive: 89.1 µM [inhibitor, single point]

# Remaining list, next part:

row,Structure (SMILES),Potency
1,Oc1ccc(Br)cc1-c1cc(-c2ccccc2Cl)[nH]n1,"inconclusive: 20 µM [inhibitor, single point]"
2,CCNc1nc(NCC)nc(OCCNS(=O)(=O)c2ccccc2)n1,"inconclusive: 25.1 µM [inhibitor, single point]"
3,Cc1nn(C(=O)c2ccco2)c(C)c1Sc1ccccc1,"inconclusive: 28.2 µM [inhibitor, single point]"
4,CCOc1ccc(N2CC(O)(c3ccc(F)cc3)[N+]3=C2CCCC3)cc1 (stereo unspecified),inactive
5,COC(=O)C1CSC(C(=O)OC)N1C(=O)CN1CCN(c2ccccc2)CC1 (stereo unspecified),"inconclusive: 56.2 µM [inhibitor, partial curve, poor fit]"
6,O=S(=O)(NCc1ccccc1F)NCc1ccccc1F,"inconclusive: 22.4 µM [inhibitor, single point]"
7,Cc1ccc(NC(=O)N2CCCCC2)cc1[N+](=O)[O-],"inconclusive: 100 µM [inhibitor, single point]"
8,CN(CC(=O)NC(=O)NC1CCCCC1)CC(=O)Nc1ccc(Cl)cc1,"inconclusive: 70.8 µM [inhibitor, partial curve]"
9,COc1ccc(NC(=O)C/C(C)=N/NC(=O)CCc2ccccc2)c(OC)c1,"inconclusive: 17.8 µM [inhibitor, single point]"
10,C#CCOCCOCCOCCNc1nc(N2CCN(C(=O)[C@H](CCC(=O)O)n3cc(C(N)CC(C)C)nn3)CC2)nc(N2CCN(C(=O)[C@H](Cc3ccc(O)cc3)n3cc(C(N)[C@H](C)CC)nn3)CC2)n1 (stereo partly specified),"inconclusive: 15.8 µM [inhibitor, single point]"
11,CC(=O)OC[C@]12CC[C@H]3[C@@](C)(CC[C@H]4C(C)(C)CCC[C@]34C)[C@@H]1C[C@@H](C1=CC(=O)O[C@@H]1OC(C)=O)O2,"inconclusive: 63.1 µM [inhibitor, single point]"
12,CCCC(=O)N(CCN1CCOCC1)c1nc2c(OC)ccc(OC)c2s1,"inconclusive: 22.4 µM [inhibitor, single point]"
13,COC(=O)c1ccc2c(c1)N(C)S(=O)(=O)c1cnc(SCC(=O)C(C)(C)C)nc1-2,"inconclusive: 100 µM [inhibitor, single point]"
14,NNC(=O)c1nn(-c2ccc(Cl)cc2)cc1O,"inconclusive: 79.4 µM [inhibitor, single point]"
15,COCCNC(=S)NNc1ccccc1[N+](=O)[O-],"inconclusive: 39.8 µM [inhibitor, partial curve]"
16,O=C1c2ccccc2-c2onc3c(N4CCN(CCO)CC4)cc(N4CCN(C(=O)c5ccco5)CC4)c1c23,inactive
17,CC(C)(C)C(=O)Nc1ccc(C(=O)COC(=O)c2ccccn2)cc1,"inconclusive: 100 µM [inhibitor, single point]"
18,Cc1ccc(C(=O)N2CCCC(N3CCN(c4ccccc4C)CC3)C2)c(=O)[nH]1 (stereo unspecified),"inconclusive: 89.1 µM [inhibitor, single point]"
19,COc1c(O)ccc(/C=N\NC(=O)c2ccc3c(c2)OCO3)c1[N+](=O)[O-],"inconclusive: 17.8 µM [inhibitor, partial curve, poor fit]"
20,C=CCn1cc(C(=O)NCCCOCC)c(=O)c2cc(S(=O)(=O)N(CC)CC)ccc21,inactive
